Inconclusive results, whose numbers are uncertain, are shown with a selection of clear calls. For some assays here: Where the call is inconclusive, the potency comes from a doubtful curve fit. Calls of active or inactive are those of the source. Calls come from the whole dose curve; as a rule, active = well fitted curve in the direction sought with a large enough effect; inconclusive = small, poorly fitted or top-dose-only effect, or another doubt; inactive = no such curve, though single readings can be large; an effect the other way counts as inactive or inconclusive.
What was measured:
[1] = qHTS of pediatric cancer cell lines to identify multiple opportunities for drug repurposing: Confirmatory screen for BT-12 cells (AID 1347112); note: nearly all actives have a fitted effect of over 55% in size; note: potency is the fitted concentration of half-maximal effect; for activity change, negative = cytotoxic: % is set by controls: 0 for no effect and ±100 for the full control effect
Procedure, shortened: (§1)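 Cells (500-1,000/well) rested 5 h, then received compounds for 48 h; metabolically active cells were measured by CellTiter-Glo luminescence. Final concentrations spanned up to 46 µM (MIPE, 11-point) or 0.59 nM-46 µM (NPC, 8-point) in primary screens, 11-point in follow-ups.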

[2] = qHTS of pediatric cancer cell lines to identify multiple opportunities for drug repurposing: Confirmatory screen for LAN-5 cells (AID 1347113); note: nearly all actives have a fitted effect of over 65% in size; note: potency is the fitted concentration of half-maximal effect
Procedure, shortened: as §1

[3] = qHTS of pediatric cancer cell lines to identify multiple opportunities for drug repurposing: Confirmatory screen for DAOY cells (AID 1347114); note: nearly all actives have a fitted effect of over 65% in size; note: potency is the fitted concentration of half-maximal effect; for activity change, negative = cytotoxic: % is set by controls: 0 for no effect and ±100 for the full control effect
Procedure, shortened: (§2)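 Viability measured as metabolically active cells via CellTiter-Glo luminescence following 48 hours of compound exposure, 11-point dilutions in confirmatory testing. 500-1,000 cells/well plated 5 hours before dosing; controls were DMSO and 2.3 µM bortezomib.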

[4] = qHTS of pediatric cancer cell lines to identify multiple opportunities for drug repurposing: Confirmatory screen for NB-EBc1 cells (AID 1347115);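 note: cells exposed to compound for 48 h before the viability read; nearly all actives have a fitted effect of over 45% in size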; note: potency is the fitted concentration of half-maximal effect; for activity change, negative = cytotoxic: % is set by controls: 0 for no effect and ±100 for the full control effect
Procedure, shortened: as §1

[5] = qHTS of pediatric cancer cell lines to identify multiple opportunities for drug repurposing: Confirmatory screen for SJ-GBM2 cells (AID 1347116); note: nearly all actives have a fitted effect of over 60% in size; note: potency is the fitted concentration of half-maximal effect;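 for activity change, negative = cytotoxic: plate controls were DMSO for no effect and bortezomib for full effect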
Procedure, shortened: as §2

[6] = qHTS of pediatric cancer cell lines to identify multiple opportunities for drug repurposing: Confirmatory screen for MG 63 (6-TG R) cells (AID 1347119); note: nearly all actives have a fitted effect of over 55% in size; note: potency is the fitted concentration of half-maximal effect
Procedure, shortened: as §1

[7] = qHTS of pediatric cancer cell lines to identify multiple opportunities for drug repurposing: Confirmatory screen for TC32 cells (AID 1347118);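 note: cells exposed to compound for 48 h before the read; nearly all actives have a fitted effect of over 65% in size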; note: potency is the fitted concentration of half-maximal effect
Procedure, shortened: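 Luminescent CellTiter-Glo read-out of metabolically active TC32 cells after 48 h compound exposure. Primary: MIPE 11-point, 0.78 nM–46 µM; NPC 8-point, 0.59 nM–46 µM. Confirmatory: 11-point dilutions.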

[8] = qHTS of pediatric cancer cell lines to identify multiple opportunities for drug repurposing: Confirmatory screen for BT-37 cells (AID 1347117); note: potency is the fitted concentration of half-maximal effect; nearly all actives have a fitted effect of over 55% in size
Procedure, shortened: as §1

[9] = qHTS of pediatric cancer cell lines to identify multiple opportunities for drug repurposing: Confirmatory screen for U-2 OS cells (AID 1347122); note: nearly all actives have a fitted effect of over 65% in size; note: potency is the fitted concentration of half-maximal effect
Procedure, shortened: as §1

[10] = qHTS of pediatric cancer cell lines to identify multiple opportunities for drug repurposing: Confirmatory screen for control Hh wild type fibroblast cells (AID 1347121);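 note: plate controls were DMSO for no effect and bortezomib for full effect; nearly all actives have a fitted effect of over 70% in size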
Procedure, shortened: as §1

Row | Compound | Potency [1] | Potency [2] | Potency [3] | Potency [4] | Potency [5] | Potency [6] | Potency [7] | Potency [8] | Potency [9] | Potency [10] | activity change, negative = cytotoxic [4]
1 | CC1(C)CCC2=C(O1)c1ccccc1C(=O)C2=O | inconclusive: 36.9 µM [cytotoxic, single point] | active: 9.27 µM | inconclusive: 26.1 µM [cytotoxic, single point] | inconclusive: 36.9 µM [cytotoxic, single point] | active: 1.31 µM | inconclusive: 36.9 µM [cytotoxic, single point] |  |  |  |  | 
2 | CCCCCCCCCCCCOCCOCCOCCOCCOCCOCCOCCOCCOCCO | inconclusive: 10.4 µM [cytotoxic, full curve] | inconclusive: 20.8 µM [cytotoxic, single point] | active: 14.7 µM | inconclusive: 18.5 µM [cytotoxic, partial curve] | inactive | inconclusive: 14.7 µM [cytotoxic, partial curve, poor fit] | inconclusive: 18.5 µM [cytotoxic, single point] |  |  |  | 
3 | Clc1ccc(C(Cn2ccnc2)OCc2ccc(Sc3ccccc3)cc2)c(Cl)c1 (centres undefined) | active: 29.3 µM | inconclusive: 32.9 µM [cytotoxic, single point] |  | inconclusive: 36.9 µM [cytotoxic, single point] | inactive | inconclusive: 32.9 µM [cytotoxic, single point] |  |  |  |  | 
4 | Clc1ccc2nsnc2c1NC1=NCCN1 | inconclusive: 0.0147 µM [rising, full curve, poor fit] | inactive |  | inactive |  | inactive | inactive | inconclusive: 29.3 µM [cytotoxic, single point] | inactive |  | 
5 | CCOC(=O)c1ccccc1O | inconclusive: 36.9 µM [cytotoxic, single point] | inconclusive: 36.9 µM [cytotoxic, single point] | inactive | inactive | inconclusive: 36.9 µM [cytotoxic, single point] | inconclusive: 36.9 µM [cytotoxic, single point] |  | inconclusive: 23.3 µM [cytotoxic, single point] |  |  | 
6 | Oc1ccc(O)cc1 | inconclusive: 32.9 µM [cytotoxic, single point] | inconclusive: 32.9 µM [cytotoxic, single point] | inconclusive: 16.5 µM [cytotoxic, partial curve, poor fit] | active: 14.7 µM | inactive | inactive |  |  |  |  | 
7 | Cc1cc(OCCCc2c(C(=O)O)n(Cc3cccnc3)c3c(-c4c(COc5ccc(N6CCN([S+](C)(=O)[O-])CC6)cc5)nn(C)c4C)cccc23)cc(C)c1Cl | inconclusive: 10.4 µM [cytotoxic, full curve] | inconclusive: 36.9 µM [cytotoxic, partial curve, poor fit] | inconclusive: 16.5 µM [cytotoxic, partial curve] | inactive | inconclusive: 9.27 µM [cytotoxic, full curve, poor fit] | inconclusive: 29.3 µM [cytotoxic, single point] | inconclusive: 20.8 µM [cytotoxic, partial curve] |  |  |  | 
8 | CC(C)C(=O)Nc1ccc([N+](=O)[O-])c(C(F)(F)F)c1 | inconclusive: 29.3 µM [cytotoxic, single point] | inactive | active: 16.5 µM | inactive | inconclusive: 36.9 µM [rising, partial curve, poor fit] | inconclusive: 20.8 µM [rising, partial curve, poor fit] | inconclusive: 18.5 µM [cytotoxic, partial curve, poor fit] | inconclusive: 36.9 µM [cytotoxic, single point] | inconclusive: 29.3 µM [cytotoxic, single point] | inactive | 
9 | COc1cc2nc(N3CCCN(C)CC3)nc(NC3CCN(Cc4ccccc4)CC3)c2cc1OC | inconclusive: 36.9 µM [cytotoxic, single point] | inconclusive: 32.9 µM [cytotoxic, single point] |  | inactive | active: 0.928 µM |  |  |  | inconclusive: 1.31 µM [cytotoxic, full curve, poor fit] |  | 
10 | O=C(c1ccc(F)c(F)c1Nc1ccc(I)cc1F)N1CC(O)([C@H]2CCCCN2)C1 | inconclusive: 18.5 µM [cytotoxic, partial curve] | inconclusive: 26.1 µM [cytotoxic, single point] | inconclusive: 29.3 µM [cytotoxic, single point] | inactive | inactive | inconclusive: 1.17 µM [cytotoxic, full curve, poor fit] | inconclusive: 32.9 µM [cytotoxic, single point] | inconclusive: 18.5 µM [cytotoxic, partial curve, poor fit] |  |  | 
11 | CO[C@H]1C(=O)[C@]2(C)[C@@H](OC)C[C@H]3OC[C@@]3(OC(C)=O)[C@H]2[C@H](OC(=O)c2ccccc2)[C@]2(O)C[C@H](OC(=O)[C@H](O)[C@@H](NC(=O)OC(C)(C)C)c3ccccc3)C(C)=C1C2(C)C | inconclusive: 0.0261 µM [cytotoxic, full curve, poor fit] |  | inconclusive: 0.0074 µM [cytotoxic, full curve] | inactive | inactive |  |  | inconclusive: 0.0074 µM [cytotoxic, full curve] |  |  | 
12 | CO[C@H]1C=CC=C(C)C(=O)NC2=CC(=O)C(NCCN(C)C)=C(C[C@@H](C)C[C@H](OC)[C@@H](O)[C@@H](C)C=C(C)[C@@H]1OC(N)=O)C2=O | inconclusive: 9.27 µM [cytotoxic, single point] |  |  | inconclusive: 4.65 µM [cytotoxic, partial curve, poor fit] | inactive |  | inconclusive: 0.928 µM [cytotoxic, full curve, poor fit] |  | inconclusive: 14.7 µM [cytotoxic, partial curve, poor fit] |  | 
13 | C=C1C(=O)[C@@]23C(CC[C@@H]1[C@H]2O)[C@@]12CO[C@]3(O)[C@@H](O)[C@@H]1C(C)(C)CC[C@@H]2O (some centres undefined) | active: 7.37 µM |  |  | active: 8.27 µM | active: 20.8 µM |  |  | active: 18.5 µM | inconclusive: 36.9 µM [cytotoxic, single point] |  | 
14 | CCN(CC)C(=S)SSC(=S)N(CC)CC | inconclusive: 32.9 µM [cytotoxic, partial curve, poor fit] |  |  | inconclusive: 0.233 µM [cytotoxic, full curve, poor fit] |  |  |  |  |  |  | 
15 | Cn1nnc2c(C(N)=O)ncn2c1=O | inactive |  | inactive |  |  |  | inactive |  |  |  | 
16 | Cc1[nH]c(C=C2C(=O)Nc3ccc(S(=O)(=O)Cc4c(Cl)cccc4Cl)cc32)c(C)c1C(=O)N1CCC[C@H]1CN1CCCC1 | inconclusive: 36.9 µM [cytotoxic, single point] |  | inconclusive: 26.1 µM [cytotoxic, single point] |  | inconclusive: 20.8 µM [cytotoxic, partial curve, poor fit] |  | active: 11.7 µM |  | inconclusive: 32.9 µM [cytotoxic, single point] |  | 
17 | CC(C)C[C@@H](C(=O)N[C@H](C(=O)OC1CCCC1)c1ccccc1)[C@H](O)C(=O)NO |  | inconclusive: 32.9 µM [cytotoxic, single point] | active: 18.5 µM | inactive | inconclusive: 20.8 µM [cytotoxic, partial curve, poor fit] |  |  | inconclusive: 20.8 µM [cytotoxic, single point] | inconclusive: 26.1 µM [cytotoxic, single point] |  | 
18 | O=c1cc(-c2ccc(O)cc2)oc2cc(O)cc(O)c12 | inconclusive: 5.22 µM [cytotoxic, full curve] |  | inactive | inconclusive: 7.37 µM [cytotoxic, single point] | inactive | inconclusive: 10.4 µM [cytotoxic, single point] | inconclusive: 2.61 µM [cytotoxic, full curve] | inconclusive: 4.14 µM [cytotoxic, full curve, poor fit] |  |  | 
19 | CC[C@]1(O)C[C@@H]2CN(CCc3c([nH]c4ccccc34)[C@@](C(=O)OC)(c3cc4c(cc3OC)N(C=O)[C@@H]3C45CCN4CC=C[C@](CC)([C@H]45)[C@@H](OC(C)=O)[C@]3(O)C(=O)OC)C2)C1 (some centres undefined) | inactive |  | inconclusive: 36.9 µM [cytotoxic, single point] |  | inconclusive: 0.369 µM [rising, full curve] | inactive | inconclusive: 8.27 µM [cytotoxic, full curve, poor fit] |  |  |  | 
20 | NCCCNCCSP(=O)(O)O |  | inconclusive: 0.605 µM [rising, partial curve, poor fit] | inconclusive: 0.382 µM [cytotoxic, full curve, poor fit] |  | active: 0.215 µM |  | inconclusive: 6.05 µM [cytotoxic, single point] |  | inconclusive: 0.152 µM [cytotoxic, partial curve, poor fit] |  | inactive: 10.1% [at 9.58 µM]
21 | N=C1N=C(N)c2cc3ccccc3cc21 | inconclusive: 67.6 µM [cytotoxic, single point] |  |  | inconclusive: 53.7 µM [cytotoxic, single point] | inconclusive: 67.6 µM [cytotoxic, single point] |  |  |  | inconclusive: 67.6 µM [cytotoxic, single point] |  | 
22 | C=C1C(=CC=C2CCC[C@]3(C)[C@@H]([C@H](C)CCCC(C)(C)O)CC[C@@H]23)C[C@@H](O)C[C@@H]1O | inconclusive: 29.3 µM [cytotoxic, partial curve, poor fit] |  | inconclusive: 23.3 µM [cytotoxic, single point] |  | inactive | inconclusive: 23.3 µM [cytotoxic, single point] | inconclusive: 36.9 µM [cytotoxic, single point] |  | inconclusive: 36.9 µM [cytotoxic, single point] |  | 
23 | CS(=O)(=O)CCNCc1ccc(-c2ccc3ncnc(Nc4ccc(OCc5cccc(F)c5)c(Cl)c4)c3c2)o1 |  | inconclusive: 9.27 µM [cytotoxic, full curve, poor fit] | inconclusive: 29.3 µM [cytotoxic, single point] | inactive | inconclusive: 36.9 µM [cytotoxic, single point] | inconclusive: 0.0928 µM [cytotoxic, full curve, poor fit] | inconclusive: 0.104 µM [cytotoxic, full curve, poor fit] | inconclusive: 9.27 µM [cytotoxic, full curve, poor fit] |  |  | 

Compounds 21–22, quoted:
Row | Compound | Potency [1] | Potency [2] | Potency [3] | Potency [4] | Potency [5] | Potency [6] | Potency [7] | Potency [8] | Potency [9] | Potency [10] | activity change, negative = cytotoxic [4]
21 | N=C1N=C(N)c2cc3ccccc3cc21 | inconclusive: 67.6 µM [cytotoxic, single point] |  |  | inconclusive: 53.7 µM [cytotoxic, single point] | inconclusive: 67.6 µM [cytotoxic, single point] |  |  |  | inconclusive: 67.6 µM [cytotoxic, single point] |  | 
22 | C=C1C(=CC=C2CCC[C@]3(C)[C@@H]([C@H](C)CCCC(C)(C)O)CC[C@@H]23)C[C@@H](O)C[C@@H]1O | inconclusive: 29.3 µM [cytotoxic, partial curve, poor fit] |  | inconclusive: 23.3 µM [cytotoxic, single point] |  | inactive | inconclusive: 23.3 µM [cytotoxic, single point] | inconclusive: 36.9 µM [cytotoxic, single point] |  | inconclusive: 36.9 µM [cytotoxic, single point] |  | 

Reference: PubChem BioAssay (NCATS)
